The list is a part of this screen's results and no random one: it gathers tests that were run many times, whatever their T/C, doses with no T/C, and many T/C values between a quarter and a half above the control. Further doses and runs are listed elsewhere. T/C gives the treated animals as a percentage of the vehicle group. Some doses have a count of surviving animals in place of a T/C: the source holds a T/C of zero for them, seemingly a mark for toxic or unscored doses. Some doses without a T/C left all or most animals alive at the check, yet need not have been tolerated: survival well below the control is almost never listed, so the zero probably covers shortened survival too. Survivors were counted at the toxicity check, usually on the fifth day, unless a day is given; later deaths do not show. Schedules are NCI's codes, taken here to give the interval after Q, in days (D) or hours (H), and the number of doses after X. For survival time, the PubChem record calls one and a half times the control and up active, and a quarter to a half above the control has no call in these data; cut-offs in other NCI protocols can differ. Some entries hold several experiments; the values are given in rising order.
System: P388 leukemia ip, CD2F1 mice, survival T/C
Assay: NCI In Vivo Anticancer Drug Screen. Data for tumor model P388 Leukemia (intraperitoneal) in CD2F1 (CDF1) mice
Conditions: T/C endpoint: median survival time, higher T/C = longer survival
[1] = dose: 60.0 mg/kg/injection, schedule: Q01DX005 (ip), vehicle: saline with Tween-80
[2] = dose: 120.0 mg/kg/injection, schedule: Q01DX005 (ip), vehicle: saline with Tween-80
[3] = dose: 240.0 mg/kg/injection, schedule: Q01DX005 (ip), vehicle: saline with Tween-80
[4] = dose: 50.0 mg/kg/injection, schedule: Q01DX009 (ip), vehicle: other
[5] = dose: 100.0 mg/kg/injection, schedule: Q01DX009 (ip), vehicle: other
[6] = dose: 200.0 mg/kg/injection, schedule: Q01DX009 (ip), vehicle: other
[7] = dose: 50.0 mg/kg/injection, schedule: Q01DX009 (ip), vehicle: saline with Tween-80
[8] = dose: 100.0 mg/kg/injection, schedule: Q01DX009 (ip), vehicle: saline with Tween-80
[9] = dose: 200.0 mg/kg/injection, schedule: Q01DX009 (ip), vehicle: saline with Tween-80
[10] = dose: 100.0 mg/kg/injection, schedule: Q01DX009 (ip), vehicle: Klucel (hydroxypropylcellulose) (HPC)
[11] = dose: 200.0 mg/kg/injection, schedule: Q01DX009 (ip), vehicle: Klucel (hydroxypropylcellulose) (HPC)
[12] = dose: 240.0 mg/kg/injection, schedule: Q01DX005 (ip), vehicle: Klucel (hydroxypropylcellulose) (HPC)
[13] = dose: 400.0 mg/kg/injection, schedule: Q01DX009 (ip), vehicle: water

In the case of `COc1cccc2c1C(=O)c1c(O)c3c(c(O)c1C2=O)CC(O)(C(=O)CO)CC3OC1CC(N(Cc2ccccc2)Cc2ccccc2)C(O)C(C)O1` (stereo not drawn), the T/C (dose: 0.39 mg/kg/injection, schedule: Q01DX009 (ip), vehicle: water) was 127 % of control and the T/C (dose: 0.78 mg/kg/injection, schedule: Q01DX009 (ip), vehicle: water) was 134 % of control.
With `COc1cccc2c1C(=O)c1c(O)c3c(c(O)c1C2=O)CC(O)(C(C)=O)CC3OC1CC(NCC2(O)OCC(O)C(O)C2O)C(O)C(C)O1` (stereo not drawn) the T/C (dose: 25.0 mg/kg/injection, schedule: Q04DX003 (ip), vehicle: water) was 126 % of control, the T/C (dose: 50.0 mg/kg/injection, schedule: Q04DX003 (ip), vehicle: water) was 134 and 137 % of control and the T/C (dose: 100.0 mg/kg/injection, schedule: Q04DX003 (ip), vehicle: water) was 134 % of control.
With `COc1ccc(N=N/N=c2\sc3cc(OC)ccc3n2C)cc1` the T/C (dose: 15.0 mg/kg/injection, schedule: Q01DX005 (ip), vehicle: saline with Tween-80) was 137 % of control, the survivor count [1] was 4 of 6 and the survivor count [2] was 5 of 6.
In the case of `CC(=O)Nc1ccc(/C=C/c2ccc(N=C=S)c(S(=O)(=O)O)c2)c(S(=O)(=O)O)c1`, the T/C [1] was 126 % of control, the T/C [2] was 126 % of control and the survivor count [3] was 0 of 6.
In the case of `C=CCOc1ccccc1/C=N/[N+](C)(C)C`, the survivor count (dose: 50.0 mg/kg/injection, schedule: Q01DX009 (ip), vehicle: saline) was 0 of 6.
In the case of `Cn1ccc(=Nc2ccc(NC(=O)c3ccc(N=c4ccn(C)c5ccc([N+](=O)[O-])cc45)cc3)cc2)cc1`, the survivor count [4] was 6 of 6, the survivor count [5] was 4 of 6 and the survivor count [6] was 1 of 6. For the same compound, the survivor count (dose: 400.0 mg/kg/injection, schedule: Q01DX009 (ip), vehicle: other) was 2 of 6.
With `O=C1C2CCC(C2)[CH]1[Hg][Cl]` (stereo not drawn) the survivor count [7] was 2 of 6, the survivor count [8] was 0 of 6 and the survivor count [9] was 0 of 6.
With `CCCCOC(=O)N(C)SN(C)C(=O)Oc1cccc(C(C)C)c1` the survivor count [8] was 0 of 6 and the survivor count [9] was 0 of 6.
`C=C(C#N)COc1ccc(Cl)cc1C` was tested, and the survivor count [10] was 0 of 6 and the survivor count [11] was 0 of 6.
For `Cc1ccc(Br)cc1CCO`, the survivor count (dose: 400.0 mg/kg/injection, schedule: Q01DX005 (ip), vehicle: Klucel (hydroxypropylcellulose) (HPC)) was 3 of 5.
`CCNC(=O)OCc1c(COC(=O)NCC)c2n(c1C)CCc1ccccc1-2` was tested, and the T/C (dose: 1.56 mg/kg/injection, schedule: Q01DX009 (ip), vehicle: distilled water + Tween-80) was 125 % of control, the T/C (dose: 3.12 mg/kg/injection, schedule: Q01DX009 (ip), vehicle: distilled water + Tween-80) was 142 % of control and the T/C (dose: 6.25 mg/kg/injection, schedule: Q01DX009 (ip), vehicle: distilled water + Tween-80) was 141 % of control. For the same compound, the survivor count (dose: 25.0 mg/kg/injection, schedule: Q01DX009 (ip), vehicle: distilled water + Tween-80) was 5 of 6, the survivor count (dose: 50.0 mg/kg/injection, schedule: Q01DX009 (ip), vehicle: distilled water + Tween-80) was 1 of 6 and the survivor count (dose: 100.0 mg/kg/injection, schedule: Q01DX009 (ip), vehicle: distilled water + Tween-80) was 0 of 6. The survivor count (dose: 200.0 mg/kg/injection, schedule: Q01DX009 (ip), vehicle: distilled water + Tween-80) was 0 of 6.
With `O=C1c2ccccc2C(=O)c2cc3c(cc21)OCO3` the survivor count [12] was 6 of 6.
In the case of `CCCCCC(Cn1ccnc1)c1c(Cl)cccc1Cl` (stereo not drawn), the survivor count (dose: 100.0 mg/kg/injection, schedule: Q04DX003 (ip), vehicle: saline) was 3 of 6, the survivor count (dose: 200.0 mg/kg/injection, schedule: Q04DX003 (ip), vehicle: saline) was 2 of 6 and the survivor count (dose: 400.0 mg/kg/injection, schedule: Q04DX003 (ip), vehicle: saline) was 1 of 6.
With `CCCCCCC1NC1Cc1ccccc1Cl` (stereo not drawn) the survivor count [8] was 0 of 6, the survivor count [9] was 0 of 6 and the survivor count (dose: 400.0 mg/kg/injection, schedule: Q01DX009 (ip), vehicle: saline with Tween-80) was 0 of 6.
`NC(=O)c1cn[nH]c1N` was tested, and the survivor count (dose: 25.0 mg/kg/injection, schedule: Q01DX009 (ip), vehicle: saline) was 5 of 6.
In the case of `O=C1CC2C=CC2C1` (stereo not drawn), the survivor count [7] was 6 of 6 and the survivor count [8] was 6 of 6.
In the case of `C[CH2][Sn]([CH2]C)([CH2]C)[O]C(=O)CO`, the survivor count (dose: 6.25 mg/kg/injection, schedule: Q01DX009 (ip), vehicle: saline with Tween-80) was 3 of 6, the survivor count (dose: 12.5 mg/kg/injection, schedule: Q01DX009 (ip), vehicle: saline with Tween-80) was 0 of 6 and the survivor count (dose: 25.0 mg/kg/injection, schedule: Q01DX009 (ip), vehicle: saline with Tween-80) was 0 of 6.
For `CC(=O)OC(C(=O)O)N1C(=O)C2C3C=CC(C2C1=O)C1C2C(=O)N(C(OC(C)=O)C(=O)O)C(=O)C2C31` (stereo not drawn), the T/C (dose: 200.0 mg/kg/injection, schedule: Q01DX009 (ip), vehicle: water) was 125 % of control, the T/C [13] was 142 % of control and the survivor count [13] was 3 of 6.
`CCCOC(=O)Nc1ccc2c(c1)c1c3[nH]c(=O)c4cccn4c3ccc1n2CC` was tested, and the survivor count (dose: 400.0 mg/kg/injection, schedule: Q01DX001 (ip), vehicle: saline with Tween-80) was 4 of 5.
For `COc1cc(Br)c(C(=O)N2CCc3ccccc32)cc1OC`, the survivor count [4] was 6 of 6, the survivor count [5] was 5 of 6 and the survivor count [6] was 6 of 6.
In the case of `CCC/C=C\C=C\C(=O)OC1C2C=C3CC(C(C)O)OC(=O)CC(O)CC4CC(OC(C)=O)C(C)(C)C(O)(CC5C/C(=C\C(=O)OC)CC(/C=C/C(C)(C)C16OC(=O)C(O)C32O6)O5)O4` (stereo not drawn), the survivor count (dose: 0.06 mg/kg/injection, schedule: Q01DX009 (ip), vehicle: saline + alcohol) was 2 of 4, the survivor count (dose: 0.12 mg/kg/injection, schedule: Q01DX009 (ip), vehicle: saline + alcohol) was 1 of 4 and the survivor count (dose: 0.25 mg/kg/injection, schedule: Q01DX009 (ip), vehicle: saline + alcohol) was 0 of 5. The survivor count (dose: 0.5 mg/kg/injection, schedule: Q01DX009 (ip), vehicle: saline + alcohol) was 0 of 5, the survivor count (dose: 1.0 mg/kg/injection, schedule: Q01DX009 (ip), vehicle: saline + alcohol) was 0 of 5 and the T/C (dose: 5.0 micrograms/kg/injection, schedule: Q01DX009 (ip), vehicle: saline + alcohol) was 134 % of control. The T/C (dose: 10.0 micrograms/kg/injection, schedule: Q01DX009 (ip), vehicle: saline + alcohol) was 142 % of control.
With `CSc1cc(C)[o+]c(C)c1` the survivor count (dose: 25.0 mg/kg/injection, schedule: Q01DX009 (ip), vehicle: Klucel (hydroxypropylcellulose) (HPC)) was 6 of 6, the T/C (dose: 50.0 mg/kg/injection, schedule: Q01DX009 (ip), vehicle: Klucel (hydroxypropylcellulose) (HPC)) was 125 % of control and the T/C [10] was 126 % of control. For the same compound, the T/C [11] was 136 % of control, the survivor count [11] was 6 of 6 and the survivor count (dose: 400.0 mg/kg/injection, schedule: Q01DX009 (ip), vehicle: Klucel (hydroxypropylcellulose) (HPC)) was 3 of 6.
In the case of `CCc1cccc(NC(=O)NNC(=O)c2ccncc2)c1`, the survivor count [11] was 2 of 6.
With `CC(C)CCC1(CCCl)C(=O)NC(=O)NC1=O` the survivor count (dose: 200.0 mg/kg/injection, schedule: Q01DX005 (ip), vehicle: Klucel (hydroxypropylcellulose) (HPC)) was 0 of 6.
For `COC12CC3C4=CCOC5CC(=O)N6c7ccccc7C1(CCN2C4)C6C53` (stereo not drawn), the survivor count [1] was 0 of 6, the survivor count [2] was 0 of 6 and the survivor count [3] was 0 of 6.
`COc1ccc2c(c1)C[N+](C)(CCc1ccccc1)[B-]O2` (stereo not drawn) was tested, and the survivor count (dose: 200.0 mg/kg/injection, schedule: Q01DX005 (ip), vehicle: saline + Tween-80 + alcohol) was 1 of 6.
In the case of `c1ccc(-c2cc3nccnc3[nH]2)cc1`, the survivor count [12] was 0 of 6.
With `COc1ccc2c(ccc3c(N)ncnc32)c1` the survivor count (dose: 400.0 mg/kg/injection, schedule: Q04DX002 (ip), vehicle: saline with Tween-80) was 2 of 6.
`C(=N/NC1=NCCN1)/c1c2ccccc2c(/C=N\NC2=NCCN2)c2ccccc12` was tested, and the T/C (dose: 0.1 mg/kg/injection, schedule: Q01DX009 (ip), vehicle: saline) was 145 % of control.

Source: PubChem BioAssay AID330 (DTP/NCI, 2004)
